Key:
[1] = Molecular adsorption assay on GO (Gd by ICP-MS on washed GO pellet); assay type: physicochemical; conditions: for Adsorption on GO: in cell culture media (MEM, 10% FBS), 150 nm and 1500 nm GO, in words
HeLa cells = assay: Cell MR imaging of Magnevist-labeled cells in agarose phantoms (6-well labeling, Gd content by ICP-MS, 7 T); assay type: cell-based
Method: HeLa cells were labeled by Magnevist with and without 150 nm GO co-incubation in 6-well plates. 2 plates seeded at 300,000 cells per well were needed to produce a sufficient number of cells for imaging. For the condition of GO co-incubation, 4500 μL of Magnevist-GO mixture was prepared at a concentration of 93.3 mM Magnevist and 27 μg/mL GO. The mixture was allowed to adsorb for at least 15 minutes. 375 μL of the Magnevist-GO mixture was added to 625 μL of media in each well to reach a final concentration of 35 mM Magnevist and 10 μg/mL GO. The cells were incubated with the mixture for […]. To harvest, cells were rinsed in-plate three times with 3000 μL PBS and trypsinized using 400 μL 0.25% TrypLE. After 5 minutes of incubation at 37° C., 600 μL of media was added to each well and mixed by a pipette to ensure that all cells were lifted into suspension. After combining all the wells into a 12 mL cell suspension, 3 aliquots of 25 μL each were obtained for cell counting by Guava. 175 μL of Guava ViaCount reagent was used for dilution. Additionally, 200 μL of the cell suspension was transferred to a 1.5-mL microcentrifuge tube, centrifuged at 1000 RPM for 5 min (Thermo Scientific, Model Legend Micro 21R), and re-suspended in 200 μL media to wash the cells. […]

Row | Compound | Adsorption on GO [1] | Label loss on centrifugation (HeLa cells; with GO) [%] | Label loss on centrifugation (HeLa cells; without GO) [%] | Molecular adsorption without adsorption time ([1]; 150 nm GO, mixture added directly to media) | Measured adsorption ([1]; after repeated washing (FIG. 5A)) [Gd/10^5 C]
1 | O=C([O-])CN1CCN(CC(=O)[O-])CCN(CC(O)Cn2cc(CCCO)nn2)CCN(CC(=O)[O-])CC1.[Gd+3] (stereo not drawn) [Molecule 2] | far second |  |  |  | 
2 | O=C([O-])CN1CCN(CC(=O)[O-])CCN(CC(O)Cn2cc(CCCOP(=O)(O)O)nn2)CCN(CC(=O)[O-])CC1.[Gd+3] (stereo not drawn) [Molecule 3] | far second |  |  |  | 
3 | Diethylenetriaminepentaacetic acid gadolinium(III) dihydrogen salt hydrate [Molecule 11] |  | 69 | 57 | abolished | 326
